In PubChem BioAssay AID2685 (National Center for Advancing Translational Sciences (NCATS), 2010):
Some of the results follow. Shown are side measurements of this screen, not its main read-out; they come without a call. Compounds called inactive in the main read-out are mostly missing here. The note in brackets gives the kind of curve behind each potency; many fits are weak.

Assay: qHTS Assay for Lipid Storage Modulators in Drosophila S3 Cells;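 as to cell number change: cells counted by Cell Tracker Red CMTPX staining in the red channel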
Conditions: BODIPY lipid droplet fluorescence, 18-24 h; for cell number change: measured here: cell count max response, cells fed with added oleic acid
Summary of the method: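 Drosophila S3 cells loaded with oleic acid (400 uM, as added) and compounds at several concentrations; lipid droplets imaged by 488-nm laser-scanning cytometry, 500–530 nm intensity and object ratio to cell channel. Percent activity normalized to 20 uM Triacsin C.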

[1] = measured here: lipid fluorescence (Fed channel) AC50, cells fed with added oleic acid
[2] = measured here: cell number channel AC50, cells fed with added oleic acid

Compound	cell number change [%]	AC50 [1]	AC50 [2]
Cn1ccnc1-c1ccc(-c2nccn2C)cc1	-6.32	14.6 µM [falling, single point]	
COc1ccc(CCNC(=O)C(=O)NCCOc2ccccc2Cl)cc1OC	-83.3	0.82 µM [falling, full curve, poor fit]	14.6 µM [falling, partial curve]
COc1ccc(CNC(=O)C2CCCN2S(=O)(=O)c2ccccc2)cc1 (stereo unspecified)	73.3		5.17 µM [rising, full curve]
O=C(N[C@H]1CCC(=O)N([C@H](CSc2ccccc2)Cc2ccccc2)CC1)OCc1ccccc1	-0.647	0.0146 µM [falling, full curve, poor fit]	
O=C(c1ccc2ccccc2c1)N1CCOCC1	-11.6		
CCc1sc(NC(=O)COC)nc1-c1ccccc1	63.4	18.4 µM [rising, partial curve]	29.1 µM [rising, single point]
COc1ccccc1CCNC(=O)C1CCN(c2nnc(C)c3c(C)n(-c4ccc(C)cc4)nc23)CC1	-12	6.51 µM [rising, single point]	0.164 µM [rising, partial curve]
C/C(=N\NC(=O)CN(c1ccccc1)S(C)(=O)=O)c1ccccc1O	16.4	5.17 µM [falling, partial curve, poor fit]	0.058 µM [falling, full curve, poor fit]
CCOc1ccccc1NC(=O)N1CCC(c2nc3ccccc3[nH]2)CC1	21.7	1.84 µM [rising, partial curve]	
COc1ccccc1N(CC(=O)NCCC1=CCCCC1)S(=O)(=O)c1ccccc1	-15		
CCNc1nc(-c2cc(C)n(Cc3ccco3)c2C)cs1	-8.75		
CCCC1S/C(=N/N=C/c2ccco2)NC1=O (stereo unspecified)	-34.4	20.6 µM [falling, partial curve, poor fit]	
CCCCN(CCCC)CCNC(=O)Cc1nc2c(c(=O)[nH]c(=O)n2C)n1C	5.32		
COc1ccc(CCNC(=O)c2ccccc2Cl)cc1OC	6.15	29.1 µM [rising, single point]	
O=C(O)c1c(-c2ccccc2)c(-c2ccccc2)nc2ccccc12	-34.6		7.31 µM [falling, single point]
O=C(C1CCC1)N(CCc1ccccc1)Cc1nc2ccccc2c(=O)[nH]1	-15.9	0.164 µM [rising, single point]	
CCCOC(=O)C1=C(C)N(C)C(=O)NC1c1cc2c(cc1[N+](=O)[O-])OCO2 (stereo unspecified)	-70.8		29.1 µM [falling, single point]
Clc1ccc(SCc2cc(-c3ccc(Cl)cc3)on2)cc1	41.7	5.8 µM [falling, single point]	
Cc1cc2cc(CNC(=O)c3ccc4c(c3)OCO4)ccc2[nH]1	20.8	0.103 µM [rising, full curve, poor fit]	
O=C(Nc1nc(-c2ccc(S(=O)(=O)N3CCCC3)cc2)cs1)c1cccs1	-34.5		16.4 µM [falling, partial curve, poor fit]

Compound	cell number change [%]	AC50 [1]	AC50 [2]
COc1ccc(C(C)=O)cc1CN1C(=O)NC2(CCCCCC2)C1=O	39		14.6 µM [rising, partial curve]
CCOc1ccc(N=c2scc(-c3ccccc3)n2CCO)cc1	-83.8	2.91 µM [rising, partial curve]	29.1 µM [falling, single point]
S=C(NCCc1ccccc1)Nc1ccc(Cl)cc1Cl	-32.4	16.4 µM [falling, partial curve, poor fit]	23.1 µM [falling, partial curve]
COc1ccc(CCNS(=O)(=O)c2ccc(F)cc2)cc1OC	-32.6		18.4 µM [falling, single point]
COc1ccc(NC(=O)CSc2nnc(COc3ccccc3)n2Cc2ccco2)cc1OC	-22.3	29.1 µM [falling, single point]	
COc1ccc(S(=O)(=O)NC2CCSc3ccccc32)cc1OC (stereo unspecified)		6.51 µM [rising, single point]	
CC1(C)C2CCC1(C)C(OC(=O)CC(=O)O)C2 (stereo unspecified)	0.23	4.11 µM [falling, single point]	
COc1ccc(C(=O)NC(Cc2ccc(OC(=O)c3ccc(OC)cc3)cc2)C(=O)O)cc1 (stereo unspecified)	36.6	6.51 µM [rising, single point]	0.0058 µM [rising, full curve, poor fit]
COc1ccc(NS(=O)(=O)c2cc(NC(=O)CC(=O)c3ccc([N+](=O)[O-])cc3)ccc2C)cc1	41.5		
CCOc1nc(C)ccc1-c1noc(-c2ccccn2)n1		0.259 µM [rising, partial curve, poor fit]	
CCC(=O)Nc1ccc(C(=O)N/N=C/c2c(C)[nH]c3ccccc23)cc1	-30.8		
CC(Sc1nnc(CNC(=O)c2ccco2)n1C)C(=O)Nc1nccs1 (stereo unspecified)	-16.2	29.1 µM [falling, single point]	
CCN(CC)CCCNC(=O)c1cc2c(-c3cccc(OC)c3)nn(C)c2s1	4.49		
COc1ccc(Cc2nnc(SCC(=O)Nc3ccc(C)c(C)c3)o2)cc1OC	-9.21		
O=C(CCc1nnc2ccc(NCc3ccco3)nn12)N1CCN(c2ccccc2F)CC1	-24.2	6.51 µM [rising, single point]	
CC1CCCCN1C(=O)CSc1nc(C2CC2)nc2c1cnn2-c1ccccc1 (stereo unspecified)			6.51 µM [rising, partial curve, poor fit]
O=C(Nc1ccc(S(=O)(=O)Nc2nccs2)cc1)c1nn(-c2ccccc2)ccc1=O	11.3	0.517 µM [rising, single point]	
Cc1cc(C)n(-c2ccc(C(=O)Nc3ccc4c(c3)OCO4)cc2)n1	128	0.092 µM [rising, full curve, poor fit]	0.0731 µM [rising, full curve, poor fit]
COc1ccc(C(=O)NC(=S)Nc2ccc(CN3CCOCC3)cc2)cc1Br	1.22	29.1 µM [falling, partial curve, poor fit]	0.058 µM [rising, full curve, poor fit]

An excerpt from above with just cell number change [%] and AC50 [1].
Compound | cell number change [%] | AC50 [1]
S=C(NCCc1ccccc1)Nc1ccc(Cl)cc1Cl | -32.4 | 16.4 µM [falling, partial curve, poor fit]
COc1ccc(CCNS(=O)(=O)c2ccc(F)cc2)cc1OC | -32.6 | 
